Assay results reported in article PMC9224296.

By UniProt entry, the sequences of proteins in these tests, tags left out.
UniProt Q9WUM4: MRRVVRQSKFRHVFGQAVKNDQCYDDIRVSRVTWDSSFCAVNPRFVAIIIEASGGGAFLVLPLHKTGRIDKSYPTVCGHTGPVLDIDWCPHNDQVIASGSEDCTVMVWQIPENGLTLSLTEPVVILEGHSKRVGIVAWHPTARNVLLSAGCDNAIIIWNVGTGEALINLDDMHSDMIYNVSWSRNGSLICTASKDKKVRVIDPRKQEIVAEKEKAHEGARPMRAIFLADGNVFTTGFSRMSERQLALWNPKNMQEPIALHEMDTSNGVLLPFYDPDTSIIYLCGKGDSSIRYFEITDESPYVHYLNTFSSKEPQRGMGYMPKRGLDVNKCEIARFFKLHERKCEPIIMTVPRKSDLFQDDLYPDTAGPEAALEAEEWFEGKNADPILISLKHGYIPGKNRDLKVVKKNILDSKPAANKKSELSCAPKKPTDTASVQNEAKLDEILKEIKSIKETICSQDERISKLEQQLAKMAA
UniProt P21107: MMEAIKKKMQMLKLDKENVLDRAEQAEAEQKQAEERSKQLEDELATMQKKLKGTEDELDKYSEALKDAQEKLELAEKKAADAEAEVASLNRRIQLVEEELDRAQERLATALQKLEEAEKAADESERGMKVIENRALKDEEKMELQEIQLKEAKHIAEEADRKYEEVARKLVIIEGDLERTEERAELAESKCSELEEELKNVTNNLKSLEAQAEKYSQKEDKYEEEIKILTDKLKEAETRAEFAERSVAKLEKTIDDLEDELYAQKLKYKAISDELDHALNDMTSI

Target: T1, GFP-Rab44 (WT) (mouse) (UniProt Q8CB87)
T1 sequence: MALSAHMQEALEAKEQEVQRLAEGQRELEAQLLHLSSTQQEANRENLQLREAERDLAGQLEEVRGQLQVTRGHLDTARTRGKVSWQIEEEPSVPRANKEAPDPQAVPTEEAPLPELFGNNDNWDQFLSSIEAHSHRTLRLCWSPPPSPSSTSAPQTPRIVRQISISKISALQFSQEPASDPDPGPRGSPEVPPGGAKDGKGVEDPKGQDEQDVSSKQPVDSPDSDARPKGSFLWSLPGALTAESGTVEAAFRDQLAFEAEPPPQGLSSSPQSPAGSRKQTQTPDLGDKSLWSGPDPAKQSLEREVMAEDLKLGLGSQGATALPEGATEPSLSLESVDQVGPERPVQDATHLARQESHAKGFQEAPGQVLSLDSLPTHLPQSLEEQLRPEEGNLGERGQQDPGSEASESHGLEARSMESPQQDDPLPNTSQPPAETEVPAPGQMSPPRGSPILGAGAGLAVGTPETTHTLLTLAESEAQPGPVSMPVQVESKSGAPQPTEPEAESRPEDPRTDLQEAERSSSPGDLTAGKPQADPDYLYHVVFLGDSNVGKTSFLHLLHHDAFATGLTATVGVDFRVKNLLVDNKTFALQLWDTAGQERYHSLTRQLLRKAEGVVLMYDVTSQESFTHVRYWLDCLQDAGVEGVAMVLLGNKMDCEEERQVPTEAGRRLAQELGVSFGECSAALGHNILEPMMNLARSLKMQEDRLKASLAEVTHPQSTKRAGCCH
Test: affinity purification with mass spectrometry; GTP-specific pull-down: RAW-D lysate treated with ALP (25 units) on ice 1 h, anti-GFP mAb agarose overnight at 4 °C, five washes with PBS, elution with 5 mM GTP; SDS-PAGE, CBB staining, bands identified by MALDI-TOF-MS (Mascot)

Substance	binding
Coronin1C (from UniProt Q9WUM4 1-474)	binds
Tropomyosin α3 chain (from UniProt P21107 1-285)	binds

Results are given in words; binding and its absence hold for the method and conditions named. Binding seen in cells or lysates may run through a third protein. These calls come from enrichment with a bait or labelling near it, and not all partners need be listed. Sequences can lack the tags named with a protein.
